Measurements reported in the supplement of paper PMC10849652.
The other results are listed elsewhere or left out.

Protein sequences, listed by entry. Tags and fused reporters are not part of them. Lines headed by an entry give the natural chain unless they say otherwise; changes in a name come on top.
UniProt P0C7M4: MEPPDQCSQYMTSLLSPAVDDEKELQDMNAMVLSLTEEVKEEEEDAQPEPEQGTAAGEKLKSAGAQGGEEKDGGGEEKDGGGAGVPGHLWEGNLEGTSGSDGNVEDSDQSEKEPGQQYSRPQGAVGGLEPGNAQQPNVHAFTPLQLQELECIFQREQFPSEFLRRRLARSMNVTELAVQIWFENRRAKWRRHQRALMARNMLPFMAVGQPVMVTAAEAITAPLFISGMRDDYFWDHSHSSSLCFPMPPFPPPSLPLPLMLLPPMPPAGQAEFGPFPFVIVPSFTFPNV
UniProt O76064: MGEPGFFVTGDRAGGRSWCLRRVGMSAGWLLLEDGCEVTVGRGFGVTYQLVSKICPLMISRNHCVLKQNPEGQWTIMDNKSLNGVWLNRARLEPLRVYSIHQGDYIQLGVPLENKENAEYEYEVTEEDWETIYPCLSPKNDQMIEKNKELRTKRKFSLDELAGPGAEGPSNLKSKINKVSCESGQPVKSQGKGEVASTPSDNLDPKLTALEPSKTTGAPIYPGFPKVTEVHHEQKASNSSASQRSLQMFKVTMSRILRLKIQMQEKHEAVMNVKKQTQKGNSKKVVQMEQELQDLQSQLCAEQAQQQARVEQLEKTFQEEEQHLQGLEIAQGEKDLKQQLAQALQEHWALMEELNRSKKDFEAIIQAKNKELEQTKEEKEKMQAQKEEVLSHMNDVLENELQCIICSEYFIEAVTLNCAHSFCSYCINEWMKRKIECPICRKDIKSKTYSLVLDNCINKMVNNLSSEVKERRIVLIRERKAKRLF
UniProt Q9GZN7, whole entry, looked up: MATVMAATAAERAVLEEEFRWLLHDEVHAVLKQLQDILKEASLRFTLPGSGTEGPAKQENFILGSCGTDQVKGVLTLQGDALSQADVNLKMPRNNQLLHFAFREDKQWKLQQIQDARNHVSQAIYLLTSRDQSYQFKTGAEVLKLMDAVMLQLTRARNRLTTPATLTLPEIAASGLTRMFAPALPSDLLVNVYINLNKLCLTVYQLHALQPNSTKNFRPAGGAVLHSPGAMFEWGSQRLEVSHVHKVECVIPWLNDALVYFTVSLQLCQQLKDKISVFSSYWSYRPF
UniProt Q8WU17: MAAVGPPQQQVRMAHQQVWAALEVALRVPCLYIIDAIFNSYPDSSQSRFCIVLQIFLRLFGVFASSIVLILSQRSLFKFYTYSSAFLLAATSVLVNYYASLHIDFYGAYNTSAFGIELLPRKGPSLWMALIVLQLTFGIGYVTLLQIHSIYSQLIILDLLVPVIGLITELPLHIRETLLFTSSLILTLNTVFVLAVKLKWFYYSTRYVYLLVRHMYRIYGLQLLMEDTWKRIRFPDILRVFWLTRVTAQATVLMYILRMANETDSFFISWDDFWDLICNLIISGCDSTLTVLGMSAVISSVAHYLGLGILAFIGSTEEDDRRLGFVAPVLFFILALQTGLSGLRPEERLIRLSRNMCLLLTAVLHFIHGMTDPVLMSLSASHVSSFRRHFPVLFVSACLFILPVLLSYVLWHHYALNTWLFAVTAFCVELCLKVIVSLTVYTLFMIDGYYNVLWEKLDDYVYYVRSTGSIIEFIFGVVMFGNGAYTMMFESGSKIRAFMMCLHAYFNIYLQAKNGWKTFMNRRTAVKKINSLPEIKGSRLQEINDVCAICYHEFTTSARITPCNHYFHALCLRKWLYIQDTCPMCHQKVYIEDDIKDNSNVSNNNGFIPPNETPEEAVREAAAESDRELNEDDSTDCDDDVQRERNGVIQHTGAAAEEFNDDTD
UniProt O43567: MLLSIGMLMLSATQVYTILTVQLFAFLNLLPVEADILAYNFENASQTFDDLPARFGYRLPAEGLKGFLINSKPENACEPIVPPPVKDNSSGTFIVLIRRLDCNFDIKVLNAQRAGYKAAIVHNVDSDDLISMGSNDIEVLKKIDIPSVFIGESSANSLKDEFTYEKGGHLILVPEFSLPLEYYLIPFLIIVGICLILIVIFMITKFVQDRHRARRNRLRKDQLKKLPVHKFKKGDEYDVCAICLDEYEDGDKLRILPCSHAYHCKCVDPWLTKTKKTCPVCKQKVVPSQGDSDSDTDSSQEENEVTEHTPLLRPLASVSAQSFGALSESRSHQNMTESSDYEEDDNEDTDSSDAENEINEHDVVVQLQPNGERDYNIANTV
UniProt Q9HCK4: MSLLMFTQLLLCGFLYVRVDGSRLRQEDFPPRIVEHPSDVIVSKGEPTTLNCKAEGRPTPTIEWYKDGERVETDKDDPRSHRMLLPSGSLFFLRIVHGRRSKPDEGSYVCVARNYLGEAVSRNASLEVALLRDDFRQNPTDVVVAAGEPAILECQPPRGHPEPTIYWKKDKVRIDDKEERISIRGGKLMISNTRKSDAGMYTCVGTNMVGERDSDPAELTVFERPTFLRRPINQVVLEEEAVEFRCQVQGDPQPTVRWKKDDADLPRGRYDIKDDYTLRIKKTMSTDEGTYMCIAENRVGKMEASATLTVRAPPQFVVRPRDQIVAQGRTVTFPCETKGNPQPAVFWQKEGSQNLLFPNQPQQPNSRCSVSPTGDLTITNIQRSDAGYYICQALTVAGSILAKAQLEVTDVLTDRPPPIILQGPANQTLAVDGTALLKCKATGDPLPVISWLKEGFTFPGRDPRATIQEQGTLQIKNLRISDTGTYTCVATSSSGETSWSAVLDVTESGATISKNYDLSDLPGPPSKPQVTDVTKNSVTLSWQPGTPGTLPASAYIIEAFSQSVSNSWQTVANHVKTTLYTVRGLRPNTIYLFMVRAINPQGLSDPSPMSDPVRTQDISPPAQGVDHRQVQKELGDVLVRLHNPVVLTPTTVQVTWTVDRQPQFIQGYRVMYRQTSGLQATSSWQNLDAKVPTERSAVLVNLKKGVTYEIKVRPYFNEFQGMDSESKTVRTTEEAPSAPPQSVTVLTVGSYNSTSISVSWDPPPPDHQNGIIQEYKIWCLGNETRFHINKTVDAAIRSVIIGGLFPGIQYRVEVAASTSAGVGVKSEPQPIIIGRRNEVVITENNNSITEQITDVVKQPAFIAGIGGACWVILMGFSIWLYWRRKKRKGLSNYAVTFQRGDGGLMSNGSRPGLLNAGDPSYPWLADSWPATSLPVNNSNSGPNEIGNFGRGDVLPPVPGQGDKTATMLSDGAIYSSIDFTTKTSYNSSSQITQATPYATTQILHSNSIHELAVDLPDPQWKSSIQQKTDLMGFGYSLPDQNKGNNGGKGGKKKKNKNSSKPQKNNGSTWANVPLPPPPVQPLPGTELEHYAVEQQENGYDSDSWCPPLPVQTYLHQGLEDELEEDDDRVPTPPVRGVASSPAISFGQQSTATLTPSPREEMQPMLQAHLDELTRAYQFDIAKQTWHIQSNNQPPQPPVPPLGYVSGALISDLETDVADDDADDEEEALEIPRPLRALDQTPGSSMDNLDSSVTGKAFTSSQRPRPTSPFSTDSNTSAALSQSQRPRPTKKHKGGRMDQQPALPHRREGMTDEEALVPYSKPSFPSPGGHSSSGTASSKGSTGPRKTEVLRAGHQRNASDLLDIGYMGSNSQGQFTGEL
UniProt Q969X0: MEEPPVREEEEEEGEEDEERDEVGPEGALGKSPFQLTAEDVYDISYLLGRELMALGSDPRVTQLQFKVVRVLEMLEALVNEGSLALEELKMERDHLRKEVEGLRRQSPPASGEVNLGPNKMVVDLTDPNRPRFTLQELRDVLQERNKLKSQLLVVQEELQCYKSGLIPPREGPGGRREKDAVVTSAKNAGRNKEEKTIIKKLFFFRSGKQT
UniProt Q8TA86: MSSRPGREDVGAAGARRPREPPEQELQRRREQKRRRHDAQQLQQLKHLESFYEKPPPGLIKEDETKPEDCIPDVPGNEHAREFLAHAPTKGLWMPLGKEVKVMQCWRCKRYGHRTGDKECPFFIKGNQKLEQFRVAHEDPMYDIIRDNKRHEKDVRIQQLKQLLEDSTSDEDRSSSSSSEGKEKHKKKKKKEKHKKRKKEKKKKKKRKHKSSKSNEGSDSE
UniProt Q96GF1: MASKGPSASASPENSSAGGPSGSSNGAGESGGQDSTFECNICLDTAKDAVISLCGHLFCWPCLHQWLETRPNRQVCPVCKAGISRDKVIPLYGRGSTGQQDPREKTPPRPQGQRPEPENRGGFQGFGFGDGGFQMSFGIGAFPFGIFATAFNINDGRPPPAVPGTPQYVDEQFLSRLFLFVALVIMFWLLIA
UniProt Q9H920: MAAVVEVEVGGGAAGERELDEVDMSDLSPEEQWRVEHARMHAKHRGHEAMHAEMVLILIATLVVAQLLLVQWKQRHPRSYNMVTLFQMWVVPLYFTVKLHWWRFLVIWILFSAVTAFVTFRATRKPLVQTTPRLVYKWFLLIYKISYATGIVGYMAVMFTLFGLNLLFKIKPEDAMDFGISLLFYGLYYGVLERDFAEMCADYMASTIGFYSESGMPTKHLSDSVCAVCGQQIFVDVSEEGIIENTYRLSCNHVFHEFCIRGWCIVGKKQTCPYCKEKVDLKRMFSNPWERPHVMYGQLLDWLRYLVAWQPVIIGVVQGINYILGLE
UniProt Q99942: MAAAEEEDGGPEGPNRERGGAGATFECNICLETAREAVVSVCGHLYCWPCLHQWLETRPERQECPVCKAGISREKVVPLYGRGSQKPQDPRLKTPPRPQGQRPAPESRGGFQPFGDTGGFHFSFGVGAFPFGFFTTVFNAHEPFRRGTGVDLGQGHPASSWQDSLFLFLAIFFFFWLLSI
UniProt Q8NCN4: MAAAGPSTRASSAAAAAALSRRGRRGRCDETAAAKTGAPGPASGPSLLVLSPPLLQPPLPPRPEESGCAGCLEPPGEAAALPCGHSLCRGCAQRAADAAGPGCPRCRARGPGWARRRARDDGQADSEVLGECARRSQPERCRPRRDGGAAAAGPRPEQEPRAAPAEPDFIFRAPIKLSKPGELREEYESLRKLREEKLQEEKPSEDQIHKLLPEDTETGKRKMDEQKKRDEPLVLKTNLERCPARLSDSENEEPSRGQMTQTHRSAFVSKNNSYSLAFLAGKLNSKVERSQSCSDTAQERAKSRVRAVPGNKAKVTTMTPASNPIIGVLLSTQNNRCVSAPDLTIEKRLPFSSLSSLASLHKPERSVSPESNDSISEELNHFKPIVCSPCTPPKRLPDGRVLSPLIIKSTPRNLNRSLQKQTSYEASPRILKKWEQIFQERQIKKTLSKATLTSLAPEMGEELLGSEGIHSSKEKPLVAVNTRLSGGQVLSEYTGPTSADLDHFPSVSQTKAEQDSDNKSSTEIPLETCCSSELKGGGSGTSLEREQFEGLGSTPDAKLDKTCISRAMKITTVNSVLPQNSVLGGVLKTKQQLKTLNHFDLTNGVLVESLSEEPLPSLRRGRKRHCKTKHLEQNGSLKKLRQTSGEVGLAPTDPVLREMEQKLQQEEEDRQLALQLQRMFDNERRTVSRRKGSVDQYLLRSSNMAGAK
UniProt Q9H4P4: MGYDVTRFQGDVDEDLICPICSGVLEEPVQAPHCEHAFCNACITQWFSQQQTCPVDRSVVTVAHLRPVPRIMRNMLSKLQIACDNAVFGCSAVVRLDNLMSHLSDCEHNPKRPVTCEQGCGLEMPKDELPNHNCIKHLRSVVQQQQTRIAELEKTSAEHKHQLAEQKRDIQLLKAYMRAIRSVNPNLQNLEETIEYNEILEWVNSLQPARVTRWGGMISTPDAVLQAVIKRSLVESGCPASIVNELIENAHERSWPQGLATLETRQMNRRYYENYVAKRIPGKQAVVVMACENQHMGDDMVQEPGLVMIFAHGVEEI
UniProt Q9Y225: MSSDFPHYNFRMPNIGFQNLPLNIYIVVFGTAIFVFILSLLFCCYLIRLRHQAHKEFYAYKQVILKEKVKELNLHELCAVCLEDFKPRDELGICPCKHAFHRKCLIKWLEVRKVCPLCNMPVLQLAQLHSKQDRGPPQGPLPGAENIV
UniProt O94955, whole entry, looked up: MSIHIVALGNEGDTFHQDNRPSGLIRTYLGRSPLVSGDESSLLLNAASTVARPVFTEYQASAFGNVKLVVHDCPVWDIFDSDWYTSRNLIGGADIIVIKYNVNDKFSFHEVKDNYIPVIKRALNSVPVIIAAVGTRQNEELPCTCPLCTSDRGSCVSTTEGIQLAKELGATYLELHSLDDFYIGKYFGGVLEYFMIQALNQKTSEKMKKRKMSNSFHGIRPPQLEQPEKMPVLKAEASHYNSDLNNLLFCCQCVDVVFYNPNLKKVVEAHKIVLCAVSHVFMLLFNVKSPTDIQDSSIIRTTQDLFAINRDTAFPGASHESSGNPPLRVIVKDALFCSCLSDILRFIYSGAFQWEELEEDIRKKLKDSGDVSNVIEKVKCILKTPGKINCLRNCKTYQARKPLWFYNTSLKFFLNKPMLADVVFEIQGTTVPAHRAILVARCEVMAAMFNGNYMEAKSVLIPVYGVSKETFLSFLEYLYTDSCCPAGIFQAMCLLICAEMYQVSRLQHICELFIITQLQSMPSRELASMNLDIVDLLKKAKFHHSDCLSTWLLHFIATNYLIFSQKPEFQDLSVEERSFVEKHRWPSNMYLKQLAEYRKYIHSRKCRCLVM

What follows are targets tested with C#Cc1cccc(Nc2ncnc3cc(OCCOC)c(OCCOC)cc23)c1 [erlotinib] (assay: log2 fold change, soluble protein after heating vs DMSO (PISA); higher = thermal stabilisation; K562 lysate, 10 uM; active = over 0.2 and 3.5 SD of the protein, either way, in both replicates (recomputed)).
How it was run: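 Dounce homogenisation of K562 pellets in PBS pH 7.4 with 1 mM MgCl2 produced a crude extract, used at 1 mg/mL protein. Exposure to 10 μM compound lasted 30 min, and aliquots were then heated for 3 min across 48°C-58°C, pooled and brought to 0.5% NP-40 at 4°C. The supernatant after 21,000xg for 90 min was quantified by TMTpro 16plex LC-MS/MS with channel sums equalised. Duplicate values are given as log-two fold change in thermal stability relative to solvent controls.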

log2 fold change, inactive:
RPL32 (UniProt D3YTI8) -0.023
RHOXF2B (UniProt P0C7M4) -0.153
RNPC3 (UniProt Q96LT9) 0.004
RNF8 (UniProt O76064) 0.153
RPL15, A0A2R8Y738 0.072
ROGDI (UniProt Q9GZN7) 0.017
RINL (UniProt Q6ZS11) 0.014
RNF139 (UniProt Q8WU17) 0.035
RNF13 (UniProt O43567) -0.161
RNF10 isoform 2 (UniProt Q8N5U6) 0.043
RNPEPL1 (UniProt Q9HAU8) -0.095
ROBO2 isoform 3 (UniProt Q9HCK4) 0.042
RILPL2 (UniProt Q969X0) 0.006
RP9 (UniProt Q8TA86) -0.03
RNF185 (UniProt Q96GF1) 0.063
RNFT1 (UniProt Q5M7Z0) -0.062
RNF121 (UniProt Q9H920) -0.048
RNF17 (UniProt Q9BXT8) -0.055
RNF5 (UniProt Q99942) -0.023
RNF169 (UniProt Q8NCN4) 0.406
RNF41 (UniProt Q9H4P4) 0.055
RNF24 isoform 2 (UniProt Q9Y225) -0.146
RHPN2 (UniProt Q8IUC4) 0.004
RPL10, A0A087WV22 -0.294
RHOBTB3 (UniProt O94955) -0.014

Fetched one by one from the entries so far, two records:
log2 fold change, inactive:
RP9 (UniProt Q8TA86) -0.03
RNF8 (UniProt O76064) 0.153
